Results taken from PMC11385326.
No constants are given. Whether binding was seen depends on the method and setting. Binding seen in cells or lysates may run through a third protein. A yes stands for co-enrichment or nearness to the bait. Other partners may have been found. For part of these data: Tags and fused reporters may be left off the sequences shown.

Amino acid sequences for entries named in this document (tags omitted).
UniProt Q96CW1: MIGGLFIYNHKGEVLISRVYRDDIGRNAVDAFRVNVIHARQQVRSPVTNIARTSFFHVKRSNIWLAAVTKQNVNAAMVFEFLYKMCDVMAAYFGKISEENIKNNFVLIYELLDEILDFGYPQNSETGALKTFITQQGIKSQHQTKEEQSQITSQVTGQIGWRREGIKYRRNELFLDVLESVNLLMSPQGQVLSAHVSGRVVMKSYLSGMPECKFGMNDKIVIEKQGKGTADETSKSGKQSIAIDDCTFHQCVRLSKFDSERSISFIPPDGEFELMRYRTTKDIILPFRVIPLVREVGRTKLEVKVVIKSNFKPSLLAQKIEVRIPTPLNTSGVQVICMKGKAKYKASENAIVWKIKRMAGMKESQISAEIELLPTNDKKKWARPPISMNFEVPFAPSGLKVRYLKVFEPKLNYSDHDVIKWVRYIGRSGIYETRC
UniProt Q8TCG2: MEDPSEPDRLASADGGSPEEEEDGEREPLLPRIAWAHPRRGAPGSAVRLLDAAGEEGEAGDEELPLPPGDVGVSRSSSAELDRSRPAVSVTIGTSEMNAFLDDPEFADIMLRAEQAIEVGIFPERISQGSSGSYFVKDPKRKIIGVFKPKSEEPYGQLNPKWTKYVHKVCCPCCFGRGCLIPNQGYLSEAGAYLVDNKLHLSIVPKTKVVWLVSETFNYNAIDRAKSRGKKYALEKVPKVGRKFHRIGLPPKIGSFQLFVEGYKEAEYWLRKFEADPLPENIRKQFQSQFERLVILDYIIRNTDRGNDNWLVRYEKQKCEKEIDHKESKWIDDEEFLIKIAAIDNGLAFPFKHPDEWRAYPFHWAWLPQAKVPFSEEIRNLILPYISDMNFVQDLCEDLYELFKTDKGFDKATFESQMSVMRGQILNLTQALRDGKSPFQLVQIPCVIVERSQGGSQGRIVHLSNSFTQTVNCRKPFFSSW

Key:
[1] = target: T1, AP1µA^EN–TurboID–V5 (human (endogenous in HeLa)) (UniProt Q9BXS5); experiment: proximity labelling; TurboID knocked in at the µ subunits of AP-1 to AP-4 in living HeLa cells, 50 µM biotin for 24 h; RIPA lysate (30 min, 24 G needle), streptavidin magnetic beads, label-free quantitative LC-MS; relative intensities compared between the AP datasets (log2 fold change >1 or <-1, P<0.05), control biotin-treated WT HeLa; four replicates
T1 sequence: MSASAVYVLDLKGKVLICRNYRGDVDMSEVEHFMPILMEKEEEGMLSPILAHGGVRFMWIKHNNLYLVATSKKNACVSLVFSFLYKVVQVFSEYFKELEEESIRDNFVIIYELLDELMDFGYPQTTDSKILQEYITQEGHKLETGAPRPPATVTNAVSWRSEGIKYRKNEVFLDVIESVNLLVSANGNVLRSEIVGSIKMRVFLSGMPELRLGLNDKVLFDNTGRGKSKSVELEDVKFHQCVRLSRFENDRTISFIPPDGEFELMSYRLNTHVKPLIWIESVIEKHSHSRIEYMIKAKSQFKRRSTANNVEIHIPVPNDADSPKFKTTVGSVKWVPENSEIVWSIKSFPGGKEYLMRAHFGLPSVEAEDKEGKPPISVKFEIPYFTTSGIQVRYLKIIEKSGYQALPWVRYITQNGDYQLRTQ

[2] = target: T2, V5–TurboID–CLCa^EN (human (endogenous in HeLa)) (UniProt P09496); experiment: proximity labelling; V5–TurboID–CLCa knock-in in living HeLa cells, 50 µM biotin for 24 h; RIPA lysate, streptavidin magnetic beads, label-free quantitative LC-MS; compared with the AP1µA and AP2µ TurboID datasets and biotin-treated WT HeLa; four replicates
T2 sequence: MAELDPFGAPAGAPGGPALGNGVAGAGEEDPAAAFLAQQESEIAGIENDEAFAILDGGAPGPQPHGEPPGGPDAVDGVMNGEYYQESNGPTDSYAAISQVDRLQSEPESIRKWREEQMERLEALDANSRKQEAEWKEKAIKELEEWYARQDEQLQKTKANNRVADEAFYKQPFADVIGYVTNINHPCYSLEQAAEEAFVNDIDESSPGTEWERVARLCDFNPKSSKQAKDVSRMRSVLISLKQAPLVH

[3] = target: AP2µ^EN–TurboID–V5 (human (endogenous in HeLa)) (UniProt Q96CW1); experiment: proximity labelling; TurboID knocked in at the µ subunits of AP-1 to AP-4 in living HeLa cells, 50 µM biotin for 24 h; RIPA lysate (30 min, 24 G needle), streptavidin magnetic beads, label-free quantitative LC-MS; relative intensities compared between the AP datasets (log2 fold change >1 or <-1, P<0.05), control biotin-treated WT HeLa; four replicates
[4] = target: T3, AP4µ^EN–TurboID–V5 (human (endogenous in HeLa)) (UniProt O00189); experiment: as above
T3 sequence: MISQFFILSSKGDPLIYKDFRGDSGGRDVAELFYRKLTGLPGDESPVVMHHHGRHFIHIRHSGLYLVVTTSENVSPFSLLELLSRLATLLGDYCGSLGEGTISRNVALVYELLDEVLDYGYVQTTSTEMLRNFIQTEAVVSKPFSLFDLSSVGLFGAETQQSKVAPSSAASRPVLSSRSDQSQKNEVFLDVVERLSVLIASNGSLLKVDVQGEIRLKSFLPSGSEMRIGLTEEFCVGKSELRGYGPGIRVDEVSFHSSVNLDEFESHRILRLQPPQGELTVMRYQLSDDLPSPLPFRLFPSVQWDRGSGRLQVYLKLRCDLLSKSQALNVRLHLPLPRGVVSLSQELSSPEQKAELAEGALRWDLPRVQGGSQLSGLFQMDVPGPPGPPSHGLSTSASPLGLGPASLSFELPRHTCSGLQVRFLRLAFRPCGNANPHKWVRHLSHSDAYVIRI

[5] = target: T4, AP4µ^EN–TurboID–V5 (human (endogenous in HeLa)), O00189; experiment: as above; details: remark: other sources report otherwise
T4 chain: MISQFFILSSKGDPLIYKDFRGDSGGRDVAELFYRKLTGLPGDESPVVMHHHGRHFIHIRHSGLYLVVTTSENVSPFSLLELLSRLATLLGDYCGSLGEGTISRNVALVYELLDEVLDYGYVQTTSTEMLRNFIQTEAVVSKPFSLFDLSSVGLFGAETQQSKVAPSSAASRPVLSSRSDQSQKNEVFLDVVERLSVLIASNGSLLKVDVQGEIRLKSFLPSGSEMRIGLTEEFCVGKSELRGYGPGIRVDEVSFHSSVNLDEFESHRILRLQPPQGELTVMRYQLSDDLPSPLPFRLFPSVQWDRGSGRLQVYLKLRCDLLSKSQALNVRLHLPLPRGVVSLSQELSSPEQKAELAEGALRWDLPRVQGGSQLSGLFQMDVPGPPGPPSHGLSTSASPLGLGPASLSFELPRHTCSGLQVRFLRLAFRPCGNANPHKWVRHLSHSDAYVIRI

Molecule: PI4-kinase PI4K2B (from UniProt Q8TCG2 1-481)
- binding [1]: binds

B1: protein numb homolog (protein, UniProt P49757 1-651)
chain: MNKLRQSFRRKKDVYVPEASRPHQWQTDEEGVRTGKCSFPVKYLGHVEVDESRGMHICEDAVKRLKAERKFFKGFFGKTGKKAVKAVLWVSADGLRVVDEKTKDLIVDQTIEKVSFCAPDRNFDRAFSYICRDGTTRRWICHCFMAVKDTGERLSHAVGCAFAACLERKQKREKECGVTATFDASRTTFTREGSFRVTTATEQAEREEIMKQMQDAKKAETDKIVVGSSVAPGNTAPSPSSPTSPTSDATTSLEMNNPHAIPRRHAPIEQLARQGSFRGFPALSQKMSPFKRQLSLRINELPSTMQRKTDFPIKNAVPEVEGEAESISSLCSQITNAFSTPEDPFSSAPMTKPVTVVAPQSPTFQANGTDSAFHVLAKPAHTALAPVAMPVRETNPWAHAPDAANKEIAATCSGTEWGQSSGAASPGLFQAGHRRTPSEADRWLEEVSKSVRAQQPQASAAPLQPVLQPPPPTAISQPASPFQGNAFLTSQPVPVGVVPALQPAFVPAQSYPVANGMPYPAPNVPVVGITPSQMVANVFGTAGHPQAAHPHQSPSLVRQQTFPHYEASSATTSPFFKPPAQHLNGSAAFNGVDDGRLASADRHTEVPTGTCPVDPFEAQWAALENKSKQRTNPSPTNPFSSDLQKTFEIEL
- binding [2]: binds
- binding [3]: binds

B2: tepsin (protein, UniProt Q96N21 1-525)
chain: MAAAPPLRDRLSFLHRLPILLKGTSDDDVPCPGYLFEEIAKISHESPGSSQCLLEYLLSRLHSSSGHGKLKVLKILLYLCSHGSSFFLLILKRNSAFIQEAAAFAGPPDPLHGNSLYQKVRAAAQDLGSTLFSDTVLPLAPSQPLGTPPATGMGSQARPHSTLQGFGYSKEHGRTAVRHQPGQAGGGWDELDSGPSSQNSSQNSDLSRVSDSGSHSGSDSHSGASREPGDLAERVEVVALSDCQQELSLVRTVTRGPRAFLSREEAQHFIKACGLLNCEAVLQLLTCHLRGTSECTQLRALCAIASLGSSDLLPQEHILLRTRPWLQELSMGSPGPVTNKATKILRHFEASCGQLSPARGTSAEPGPTAALPGPSDLLTDAVPLPGSQVFLQPLSSTPVSSRSPAPSSGMPSSPVPTPPPDASPIPAPGDPSEAEARLAESRRWRPERIPGGTDSPKRGPSSCAWSRDSLFAGMELVACPRLVGAGAAAGESCPDAPRAPQTSSQRTAAKEPPGSEPSAFAFLNA
- binding [4]: binds

B3: FAM160A1, Q05DH4 1-1040 (protein)
chain: MMSSVSTESKLQQAVSLQGVDPETCMIVFKNHWAQVVKILEKHDPLKNTQAKYGSIPPDEASAVQNYVEHMLFLLIEEQAKDAAMGPILEFVVSENIMEKLFLWSLRREFTDETKIEQLKMYEMLVTQSHQPLLHHKPILKPLMMLLSSCSGTTTPTVEEKLVVLLNQLCSILAKDPSILELFFHTSEDQGAANFLIFSLLIPFIHREGSVGQQARDALLFIMSLSAENTMVAHHIVENTYFCPVLATGLSGLYSSLPTKLEEKGEEWHCLLKDDWLLLPSLVQFMNSLEFCNAVIQVAHPLIRNQLVNYIYNGFLVPVLAPALHKVTVEEVMTTTAYLDLFLRSISEPALLEIFLRFILLHQHENVHILDTLTSRINTPFRLCVVSLALFRTLIGLHCEDVMLQLVLRYLIPCNHMMLSQRWAVKERDCYSVSAAKLLALTPVCCSSGITLTLGNQERDYILWSKCMHDTSGPVERPFPEAFSESACIVEYGKALDISYLQYLWEAHTNILRCMRDCRVWSALYDGDSPDPEMFLQSLTEEGSVSSACPVFGLPQQLPRKTGPQLAPRKDKSQTELEWDDSYDTGISSGADVGSPGPYDDLEVSGPPAPIDPPKHIQEMKKNALLLFKGSYIEESDFQDDVMVYRLCAEKDSEDMKDSQEEAARPPAEAQAEVQSVPINNGPLLSTQPETDSEEEWNRDNSDPFHSEPKEPKQEREPEAAPESNSELASPAPEAEHSSNLTAAHPESEELIAQYDQIIKELDSGAEGLMEQNYPTPDPLLLTKEEEGKEESKGEKEKEGKKELEDEEDDFDSFIAEMPAVETVPSPFVGRDEAAFASRHPVRTQSTPFTGPFISVVLSKLENMLENSLHVNLLLIGIITQLASYPQPLLRSFLLNTNMVFQPSVRSLYQVLASVKNKIEQFASVERDFPGLLIQAQQYLLFRVDMSDMTPAALTKDPIQEASRTGSGKNLLDGPPRVLQPFLTHRTKVAEAPPNLPLPVRNPMLAAALFPEFLKELAALAQEHSILCYKILGDFEDSCC
- binding [5]: binds

B4: ATG9A (protein, UniProt Q7Z3C6 1-839)
chain: MAQFDTEYQRLEASYSDSPPGEEDLLVHVAEGSKSPWHHIENLDLFFSRVYNLHQKNGFTCMLIGEIFELMQFLFVVAFTTFLVSCVDYDILFANKMVNHSLHPTEPVKVTLPDAFLPAQVCSARIQENGSLITILVIAGVFWIHRLIKFIYNICCYWEIHSFYLHALRIPMSALPYCTWQEVQARIVQTQKEHQICIHKRELTELDIYHRILRFQNYMVALVNKSLLPLRFRLPGLGEAVFFTRGLKYNFELILFWGPGSLFLNEWSLKAEYKRGGQRLELAQRLSNRILWIGIANFLLCPLILIWQILYAFFSYAEVLKREPGALGARCWSLYGRCYLRHFNELEHELQSRLNRGYKPASKYMNCFLSPLLTLLAKNGAFFAGSILAVLIALTIYDEDVLAVEHVLTTVTLLGVTVTVCRSFIPDQHMVFCPEQLLRVILAHIHYMPDHWQGNAHRSQTRDEFAQLFQYKAVFILEELLSPIVTPLILIFCLRPRALEIIDFFRNFTVEVVGVGDTCSFAQMDVRQHGHPQWLSAGQTEASVYQQAEDGKTELSLMHFAITNPGWQPPRESTAFLGFLKEQVQRDGAAASLAQGGLLPENALFTSIQSLQSESEPLSLIANVVAGSSCRGPPLPRDLQGSRHRAEVASALRSFSPLQPGQAPTGRAHSTMTGSGVDARTASSGSSVWEGQLQSLVLSEYASTEMSLHALYMHQLHKQQAQAEPERHVWHRRESDESGESAPDEGGEGARAPQSIPRSASYPCAAPRPGAPETTALHGGFQRRYGGITDPGTVPRVPSHFSRLPLGGWAEDGQSASRHPEPVPEEGSEDELPPQVHKV
- binding [4]: binds
